Results are given in words; binding and its absence hold for the method and conditions named. Binding seen in cells or lysates may run through a third protein. Here binding means that the protein was enriched with, or labelled near, the bait; the list need not be complete.
B1: Myosin-Id (protein, UniProt O94832 1-1006)
chain: MAEQESLEFGKADFVLMDTVSMPEFMANLRLRFEKGRIYTFIGEVVVSVNPYKLLNIYGRDTIEQYKGRELYERPPHLFAIADAAYKAMKRRSKDTCIVISGESGAGKTEASKYIMQYIAAITNPSQRAEVERVKNMLLKSNCVLEAFGNAKTNRNDNSSRFGKYMDINFDFKGDPIGGHINNYLLEKSRVIVQQPGERSFHSFYQLLQGGSEQMLRSLHLQKSLSSYNYIHVGAQLKSSINDAAEFRVVADAMKVIGFKPEEIQTVYKILAAILHLGNLKFVVDGDTPLIENGKVVSIIAELLSTKTDMVEKALLYRTVATGRDIIDKQHTEQEASYGRDAFAKAIYERLFCWIVTRINDIIEVKNYDTTIHGKNTVIGVLDIYGFEIFDNNSFEQFCINYCNEKLQQLFIQLVLKQEQEEYQREGIPWKHIDYFNNQIIVDLVEQQHKGIIAILDDACMNVGKVTDEMFLEALNSKLGKHAHFSSRKLCASDKILEFDRDFRIRHYAGDVVYSVIGFIDKNKDTLFQDFKRLMYNSSNPVLKNMWPEGKLSITEVTKRPLTAATLFKNSMIALVDNLASKEPYYVRCIKPNDKKSPQIFDDERCRHQVEYLGLLENVRVRRAGFAFRQTYEKFLHRYKMISEFTWPNHDLPSDKEAVKKLIERCGFQDDVAYGKTKIFIRTPRTLFTLEELRAQMLIRIVLFLQKVWRGTLARMRYKRTKAALTIIRYYRRYKVKSYIHEVARRFHGVKTMRDYGKHVKWPSPPKVLRRFEEALQTIFNRWRASQLIKSIPASDLPQVRAKVAAVEMLKGQRADLGLQRAWEGNYLASKPDTPQTSGTFVPVANELKRKDKYMNVLFSCHVRKVNRFSKVEDRAIFVTDRHLYKMDPTKQYKVMKTIPLYNLTGLSVSNGKDQLVVFHTKDNKDLIVCLFSKQPTHESRIGELVGVLVNHFKSEKRHLQVNVTNPVQCSLHGKKCTVSVETRLNQPQPDFTKNRSGFILSVPGN
B2: Tropomodulin-3 (protein, UniProt Q9NYL9 1-352)
chain: MALPFRKDLEKYKDLDEDELLGNLSETELKQLETVLDDLDPENALLPAGFRQKNQTSKSTTGPFDREHLLSYLEKEALEHKDREDYVPYTGEKKGKIFIPKQKPVQTFTEEKVSLDPELEEALTSASDTELCDLAAILGMHNLITNTKFCNIMGSSNGVDQEHFSNVVKGEKILPVFDEPPNPTNVEESLKRTKENDAHLVEVNLNNIKNIPIPTLKDFAKALETNTHVKCFSLAATRSNDPVATAFAEMLKVNKTLKSLNVESNFITGVGILALIDALRDNETLAELKIDNQRQQLGTAVELEMAKMLEENTNILKFGYQFTQQGPRTRAANAITKNNDLVRKRRVEGDHQ
B3: EF hand containing protein D2 (protein, UniProt Q96C19 1-240)
chain: MATDELATKLSRRLQMEGEGGGETPEQPGLNGAAAAAAGAPDEAAEALGSADCELSAKLLRRADLNQGIGEPQSPSRRVFNPYTEFKEFSRKQIKDMEKMFKQYDAGRDGFIDLMELKLMMEKLGAPQTHLGLKNMIKEVDEDFDSKLSFREFLLIFRKAAAGELQEDSGLCVLARLSEIDVSSEGVKGAKSFFEAKVQAINVSSRFEEEIKAEQEERKKQAEEMKQRKAAFKELQSTFK

Each binder was assayed against Leucocyte surface antigen, CD47 (human (endogenous in K562 cells, erythroblasts and erythrocytes)) (assay: affinity purification with mass spectrometry; total CD47 immunoprecipitated with BRIC126 on protein G beads from 1% NP-40 lysates of up to 15 million K562 cells, expanding (EXP) and T0 erythroblasts and mature erythrocytes; IgG isotype control; hits absent from or more than 2-fold over the IgG control; Nano LC-MS/MS).

Binder | binding
B1 | binds
B2 | binds
B3 | binds
